Measured values: the supplement of paper PMC4604168 (melanoma cell lines)
Some of the results follow. Many values rest on one well or one pass, so single values are uncertain.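 The apoptosis fraction was the count of cleaved-PARP antibody-stained nuclei relative to all DNA-stained nuclei, imaged in 1,536-well plates. Screening doses were set so most cells survived, and baseline and induced cleaved-PARP levels vary greatly across cell lines.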

tested on: SkMel28; assay: cleaved PARP positive nuclei fraction relative to DMSO control; melanoma cells; higher = more apoptosis; conditions: library dose: low library concentration; 72 h

Row | Compound | cleaved PARP positive nuclei fraction
1 | CC(=O)c1c(C)c2cnc(Nc3ccc(N4CCNCC4)cn3)nc2n(C2CCCC2)c1=O [palbociclib] + OCc1c[nH]c2ccccc12 [Indole-3-carbinol] (first compound 0.04 µM, partner dose 0.8 µM) | 101%
2 | Clc1ccc(Nc2nnc(Cc3ccncc3)c3ccccc23)cc1 [vatalanib] + COCC[n+]1c2c(n(Cc3cnccn3)c1C)C(=O)c1ccccc1C2=O [YM155] (first compound 2 µM, partner dose 0.0004 µM) | 40.3%
3 | CC1(C)NC(=O)N(c2ccc([N+](=O)[O-])c(C(F)(F)F)c2)C1=O [nilutamide] + O=C(Nc1cccc(Cl)c1)Nc1ncc(CCNc2ncnc3ccsc23)s1 [SNS314] (first compound 1 µM, partner dose 0.0008 µM) | 74.5%
4 | Nc1cccc2c1CN(C1CCC(=O)NC1=O)C2=O (stereo not given) [lenalidomide] + C[C@]1(c2nc3c(C(N)=O)cccc3[nH]2)CCCN1 [Veliparib] (first compound 1 µM, partner dose 1.4 µM) | 97.3%
5 | OCc1c[nH]c2ccccc12 [Indole-3-carbinol] + COc1ccc(Cl)c(Nc2nc3ccccc3nc2NS(=O)(=O)c2cccc(NC(=O)C(C)(C)N)c2)c1 [XL147] (first compound 0.8 µM, partner dose 0.8 µM) | 26.6%
6 | CC(=O)c1c(C)c2cnc(Nc3ccc(N4CCNCC4)cn3)nc2n(C2CCCC2)c1=O [palbociclib] + Clc1ccc(Nc2nnc(Cc3ccncc3)c3ccccc23)cc1 [vatalanib] (first compound 0.04 µM, partner dose 2 µM) | 97.6%
7 | Cn1nnc2c(C(N)=O)ncn2c1=O [temozolomide] + C[C@@H]1CCN(C(=O)CC#N)C[C@@H]1N(C)c1ncnc2[nH]ccc12 [CP690550] (first compound 2 µM, partner dose 1 µM) | 43.8%
8 | Cc1nc(Nc2ncc(C(=O)Nc3c(C)cccc3Cl)s2)cc(N2CCN(CCO)CC2)n1 [dasatanib] + Cn1nnc2c(C(N)=O)ncn2c1=O [temozolomide] (first compound 0.004 µM, partner dose 2 µM) | 150%
9 | OCc1c[nH]c2ccccc12 [Indole-3-carbinol] + COCC[n+]1c2c(n(Cc3cnccn3)c1C)C(=O)c1ccccc1C2=O [YM155] (first compound 0.8 µM, partner dose 0.0004 µM) | 106%
10 | Clc1ccc(Nc2nnc(Cc3ccncc3)c3ccccc23)cc1 [vatalanib] + C=CCn1c(=O)c2cnc(Nc3ccc(N4CCN(C)CC4)cc3)nc2n1-c1cccc(C(C)(C)O)n1 [MK1775] (first compound 2 µM, partner dose 0.02 µM) | 176%
11 | C#Cc1cccc(Nc2ncnc3cc(OCCOC)c(OCCOC)cc23)c1 [erlotinib] + COCC[n+]1c2c(n(Cc3cnccn3)c1C)C(=O)c1ccccc1C2=O [YM155] (first compound 0.8 µM, partner dose 0.0004 µM) | 76.8%
12 | Cc1nc(Nc2ncc(C(=O)Nc3c(C)cccc3Cl)s2)cc(N2CCN(CCO)CC2)n1 [dasatanib] + Cn1c(Nc2ccc(C(F)(F)F)cc2)nc2cc(Oc3ccnc(-c4ncc(C(F)(F)F)[nH]4)c3)ccc21 [CHIR265] (first compound 0.004 µM, partner dose 0.08 µM) | 170%
13 | CC(C)(C)c1cnc(CSc2cnc(NC(=O)C3CCNCC3)s2)o1 + Cc1cc(N2CCOCC2)cc2[nH]c(-c3c(NC[C@@H](O)c4cccc(Cl)c4)cc[nH]c3=O)nc12 [BMS536924] (first compound 0.01 µM, partner dose 0.2 µM) | 151%
14 | OCc1c[nH]c2ccccc12 [Indole-3-carbinol] + Nc1cccc2c1CN(C1CCC(=O)NC1=O)C2=O [lenalidomide] (first compound 0.8 µM, partner dose 1 µM) | 43.1%
15 | Cn1c(Nc2ccc(C(F)(F)F)cc2)nc2cc(Oc3ccnc(-c4ncc(C(F)(F)F)[nH]4)c3)ccc21 + Nc1cccc2c1CN(C1CCC(=O)NC1=O)C2=O [lenalidomide] (first compound 0.08 µM, partner dose 1 µM) | 149%
16 | Clc1ccc(Nc2nnc(Cc3ccncc3)c3ccccc23)cc1 [vatalanib] + Cc1nc(Nc2ncc(C(=O)Nc3c(C)cccc3Cl)s2)cc(N2CCN(CCO)CC2)n1 [dasatanib] (first compound 2 µM, partner dose 0.004 µM) | 88.4%
17 | OCc1c[nH]c2ccccc12 [Indole-3-carbinol] + O=S(=O)(c1ccccc1)N(CC(F)(F)F)c1ccc(C(O)(C(F)(F)F)C(F)(F)F)cc1 [T0901317] (first compound 0.8 µM, partner dose 1.4 µM) | 183%
18 | C=CCNC1=C2C[C@@H](C)C[C@H](OC)[C@H](O)[C@@H](C)/C=C(\C)[C@H](OC(N)=O)[C@@H](OC)/C=C\C=C(/C)C(=O)NC(=CC1=O)C2=O [Tanespimycin] + Nc1cccc2c1CN(C1CCC(=O)NC1=O)C2=O [lenalidomide] (first compound 0.002 µM, partner dose 1 µM) | 183%
19 | C=CCNC1=C2C[C@@H](C)C[C@H](OC)[C@H](O)[C@@H](C)/C=C(\C)[C@H](OC(N)=O)[C@@H](OC)/C=C\C=C(/C)C(=O)NC(=CC1=O)C2=O [Tanespimycin] + OCc1c[nH]c2ccccc12 [Indole-3-carbinol] (first compound 0.002 µM, partner dose 0.8 µM) | 74.3%
20 | C=CCNC1=C2C[C@@H](C)C[C@H](OC)[C@H](O)[C@@H](C)/C=C(\C)[C@H](OC(N)=O)[C@@H](OC)/C=C\C=C(/C)C(=O)NC(=CC1=O)C2=O [Tanespimycin] + CC(=O)c1c(C)c2cnc(Nc3ccc(N4CCNCC4)cn3)nc2n(C2CCCC2)c1=O [palbociclib] (first compound 0.002 µM, partner dose 0.04 µM) | 143%
21 | C#Cc1cccc(Nc2ncnc3cc(OCCOC)c(OCCOC)cc23)c1 [erlotinib] + Cn1c(Nc2ccc(C(F)(F)F)cc2)nc2cc(Oc3ccnc(-c4ncc(C(F)(F)F)[nH]4)c3)ccc21 [CHIR265] (first compound 0.8 µM, partner dose 0.08 µM) | 137%
22 | C#Cc1cccc(Nc2ncnc3cc(OCCOC)c(OCCOC)cc23)c1 [erlotinib] + Cn1nnc2c(C(N)=O)ncn2c1=O [temozolomide] (first compound 0.8 µM, partner dose 2 µM) | 99.5%
23 | Cn1c(Nc2ccc(C(F)(F)F)cc2)nc2cc(Oc3ccnc(-c4ncc(C(F)(F)F)[nH]4)c3)ccc21 + COCC[n+]1c2c(n(Cc3cnccn3)c1C)C(=O)c1ccccc1C2=O [YM155] (first compound 0.08 µM, partner dose 0.0004 µM) | 118%
24 | Clc1ccc(Nc2nnc(Cc3ccncc3)c3ccccc23)cc1 [vatalanib] + C#Cc1cccc(Nc2ncnc3cc(OCCOC)c(OCCOC)cc23)c1 [erlotinib] (first compound 2 µM, partner dose 0.8 µM) | 90%
25 | C=CCNC1=C2C[C@@H](C)C[C@H](OC)[C@H](O)[C@@H](C)/C=C(\C)[C@H](OC(N)=O)[C@@H](OC)/C=C\C=C(/C)C(=O)NC(=CC1=O)C2=O [Tanespimycin] + CC(C)CCN1c2nc(Nc3cc(F)c(O)c(F)c3)ncc2N(C)C(=O)C1C [BID1870] (first compound 0.002 µM, partner dose 0.2 µM) | 112%

Fetched one by one from the entries so far:
Row | Compound | cleaved PARP positive nuclei fraction
13 | CC(C)(C)c1cnc(CSc2cnc(NC(=O)C3CCNCC3)s2)o1 + Cc1cc(N2CCOCC2)cc2[nH]c(-c3c(NC[C@@H](O)c4cccc(Cl)c4)cc[nH]c3=O)nc12 [BMS536924] (first compound 0.01 µM, partner dose 0.2 µM) | 151%
22 | C#Cc1cccc(Nc2ncnc3cc(OCCOC)c(OCCOC)cc23)c1 [erlotinib] + Cn1nnc2c(C(N)=O)ncn2c1=O [temozolomide] (first compound 0.8 µM, partner dose 2 µM) | 99.5%
